Measured values as given in PubChem BioAssay AID2685 (National Center for Advancing Translational Sciences (NCATS), 2010).
Where “and” joins values, the source holds several entries; their conditions need not be identical. Equal entries are not always repeated. Some of the results follow. The main result of the screen is listed elsewhere. These columns were measured beside it and carry no call. Compounds called inactive in the main read-out are mostly missing here. Words in brackets tell the shape of the fitted curve; partial curves, single points and poor fits give uncertain potencies.

Test: qHTS Assay for Lipid Storage Modulators in Drosophila S3 Cells;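 for cell number change: cells counted by Cell Tracker Red CMTPX staining in the red channel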
Details: BODIPY lipid droplet fluorescence, 18-24 h; for cell number change: measured here: cell count max response, cells fed with added oleic acid
Procedure, shortened: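 Drosophila S3 cells loaded with oleic acid (400 uM, as added) and compounds at several concentrations; lipid droplets imaged by 488-nm laser-scanning cytometry, 500–530 nm intensity and object ratio to cell channel. Percent activity normalized to 20 uM Triacsin C.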

[1] = measured here: lipid fluorescence (Fed channel) AC50, cells fed with added oleic acid
[2] = measured here: cell number channel AC50, cells fed with added oleic acid

| Structure (SMILES) | cell number change | AC50 [1] | AC50 [2] |
| --- | --- | --- | --- |
| CC1(C)N([O-])C(c2ccccc2)=C[N+](=O)C1(C)C | 0.552% | 461 nM [rising, single point] | – |
| CCCCc1nc2cc(C(=O)N3CCCCC3C(=O)OC)ccc2o1 (stereo not drawn) | – | 2910 nM [falling, single point] | – |
| CC1CCCCC1NC(=O)/C(C#N)=C/c1ccccc1F (stereo not drawn) | -37% | 3660 nM [falling, partial curve] | 16400 nM [falling, partial curve] |
| O=C(NC1CCCCCCC1)C1=COCCO1 | 13.3% | 920 nM [falling, full curve] | 731 nM [falling, full curve] |
| CC(=O)N=C1C=CC(=CN(O)C(C)(C)Cc2ccccc2)C=C1 | -9.97% | 29100 nM [falling, single point] | – |
| COc1ccc(C(=O)Nc2nnc(S(=O)(=O)N3CCCCCC3)s2)cc1OC | -3.29% | 2910 nM [falling, partial curve, poor fit] | – |
| CC1CCCCN1C(=O)CSc1nnc(-c2ccccc2F)o1 (stereo not drawn) | 23.1% | – | 2910 nM [rising, partial curve, poor fit] |
| Cc1nn(CCCC(=O)Nc2cc(Oc3ccccc3)cc([N+](=O)[O-])c2)c(C)c1[N+](=O)[O-] | -13.4% | 23100 nM [falling, single point] | – |
| COc1ccc(-c2ccc3nnc(SCC(=O)N4CCCC4)n3n2)cc1 | – | – | 2910 nM [rising, partial curve, poor fit] |
| Cc1nc2ccccc2nc(C)c1=NOCc1ccc(Cl)cc1Cl | 8.87% | 9200 nM [rising, partial curve, poor fit] | – |
| CCOc1cc(N2CCOCC2)c(OCC)cc1NC(=O)C1CC(=O)N(c2ccc(C)cc2)C1 (stereo not drawn) | 8.8% | 4110 nM [rising, full curve] | – |
| CC1=CC(C)=Nc2ccc(C)cc2N1 | 18.1% and 13.2% | 29100 nM [rising, single point] | – |
| Clc1cccc(-c2nnc(-c3ccccc3)o2)c1 | 172% | – | – |
| CCCN1C(=O)CC(C(=O)OC)=C1C | -8.2% | – | – |
| COc1cc(C2C=C(Nc3ccccc3)C(=O)N2c2ccccc2)ccc1O (stereo not drawn) | 1.66% | 4.61 nM [rising, full curve, poor fit] | – |
| C/C(N)=C(/C#N)C(=O)CSc1nnc(SCc2ccc(Cl)cc2)s1 | -16.1% | 9200 nM [rising, partial curve] | – |
| O=C(COC(=O)Cc1ccccc1F)Nc1cccc(F)c1 | -31% | 731 nM [falling, partial curve] | 2060 nM [falling, full curve] |

2 records picked at random from the list so far, as already listed:

| Structure (SMILES) | cell number change | AC50 [1] | AC50 [2] |
| --- | --- | --- | --- |
| COc1cc(C2C=C(Nc3ccccc3)C(=O)N2c2ccccc2)ccc1O (stereo not drawn) | 1.66% | 4.61 nM [rising, full curve, poor fit] | – |
| CCOc1cc(N2CCOCC2)c(OCC)cc1NC(=O)C1CC(=O)N(c2ccc(C)cc2)C1 (stereo not drawn) | 8.8% | 4110 nM [rising, full curve] | – |
